Some peptides are written in HELM: one residue between dots, names in brackets for other building blocks, links after the first $. Starred links: 1 amine or outer side, 2 acyl side, 3 side chain; linkers in the order of their positions; H or OH if unused. Non-standard residues stand in square brackets, D forms with d. *: point of attachment. N(1S-cyclohexylethyl)Gly = C[C@H](NCC(=O)O)C1CCCCC1; Acetyl(2-(piperazin-1-yl)) = O=C(CN1CCNCC1)*; X4 = O=C(CN1CCCN([*:1])CC1)[*:2]; Nspe = C[C@H](NCC(=O)O)c1ccccc1; X1 = O=C(CN1CCN([*:1])CC1)[*:2]; X5 = NC(=O)CN1CCN(*)CC1; X3 = O=C(CN1CCCNCC1)*
Experiment: general procedure: Fmoc solid-phase peptide synthesis; Rink amide resin (Novabiochem); Knorr Rink amide (RAM) resin for azapeptoids; bromoacetic acid / diisopropylcarbodiimide (submonomer approach)
Details: whole synthesis, reversed-phase HPLC, analytical C18, UV-2075 (Jasco), scale of the general procedure 100 mg of resin

Going from “H-[Nspe][Nspe][Nspe][Nspe][Nspe][Nspe]-NH2 (SMILES C[C@H](NCC(=O)N(CC(=O)N(CC(=O)N(CC(=O)N(CC(=O)N(CC(N)=O)[C@@H](C)c1ccccc1)[C@@H](C)c1ccccc1)[C@@H](C)c1ccccc1)[C@@H](C)c1ccccc1)[C@@H](C)c1ccccc1)c1ccccc1)” to “H-[Nspe][Nspe][Nspe][Nspe][Nspe][Nspe]-X5 (SMILES C[C@H](NCC(=O)N(CC(=O)N(CC(=O)N(CC(=O)N(CC(=O)N(CC(=O)N1CCN(CC(N)=O)CC1)[C@@H](C)c1ccccc1)[C@@H](C)c1ccccc1)[C@@H](C)c1ccccc1)[C@@H](C)c1ccccc1)[C@@H](C)c1ccccc1)c1ccccc1)”, the “crude HPLC purity” value falls from 99% to 81%.

Npl-(Nspe)6-Npz and Npz-(Npm)2-Nsch-Ncpe-Nsch-Nfpm are the same in “crude HPLC purity” value: 70% for the first, 70% for the second.

Going from Npz-Nspe-Ntrp-(Nspe)2-Nhq-Nspe to Nspe-Ntrp-(Nspe)2-Nhq-Nspe-Npz, the “crude HPLC purity” value rises from 72% to 80%.

Going from “PEPTIDE1{[Nhpz].[Ns1npe].[Ns1npe].[Ns1npe].[Ns1npe].[am]}$$$$V2.0” to “PEPTIDE1{[Nhpz].[Nsch].[Nsch].[Nsch].[Nsch].[Nsch].[am]}$$$$V2.0”, the “crude HPLC purity” value falls from 81% to 76%.

Compared with “PEPTIDE1{[Npz].[Npz].[Npz].[Ns1npe].[Ns1npe].[Ns1npe].[Ns1npe].[am]}$$$$V2.0”, “PEPTIDE1{[Npz].[Npz].[Ns1npe].[Ns1npe].[Ns1npe].[Ns1npe].[am]}$$$$V2.0” is higher in “crude HPLC purity” value: 72% for the first, 78% for the second.

First: PEPTIDE1{[Npz].[Ns1npe].[Ns1npe].[Ns1npe].[Ns1npe].[am]}$$$$V2.0
Second: PEPTIDE1{[Npz].[Nsch].[Nsch].[Nsch].[Nsch].[Nsch].[am]}$$$$V2.0
The “crude HPLC purity” value of the first is higher: 82% for the first, 75% for the second.

Going from “PEPTIDE1{[Npz].[Nspe].[Nspe].[Nspe].[Nspe].[Nspe].[Nspe].[NplC].[am]}$PEPTIDE1,PEPTIDE1,1:R1-8:R3$$$V2.0” to “PEPTIDE1{[Ns1npe].[Ns1npe].[Ns1npe].[Ns1npe].[Npz].[am]}$$$$V2.0”, the “crude HPLC purity” value rises from 40% to 80%.

First: PEPTIDE1{[Ns1npe].[Ns1npe].[Ns1npe].[Ns1npe].[am]}$$$$V2.0
Second: X3-[Nspe][Nspe][Nspe][Nspe][Nspe][Nspe]-NH2 (SMILES C[C@@H](c1ccccc1)N(CC(N)=O)C(=O)CN(C(=O)CN(C(=O)CN(C(=O)CN(C(=O)CN(C(=O)CN1CCCNCC1)[C@@H](C)c1ccccc1)[C@@H](C)c1ccccc1)[C@@H](C)c1ccccc1)[C@@H](C)c1ccccc1)[C@@H](C)c1ccccc1)
The “crude HPLC purity” value of the first is higher: 99% for the first, 85% for the second.

Going from “X3-[X4][Nspe][Nspe][Nspe][Nspe][Nspe][Nspe]-NH2 (SMILES C[C@@H](c1ccccc1)N(CC(N)=O)C(=O)CN(C(=O)CN(C(=O)CN(C(=O)CN(C(=O)CN(C(=O)CN1CCCN(C(=O)CN2CCCNCC2)CC1)[C@@H](C)c1ccccc1)[C@@H](C)c1ccccc1)[C@@H](C)c1ccccc1)[C@@H](C)c1ccccc1)[C@@H](C)c1ccccc1)” to “{Acetyl(2-(piperazin-1-yl))}-[Nspe][Nspe][Nspe][Nspe][Nspe][Nspe]-NH2 (SMILES C[C@@H](c1ccccc1)N(CC(N)=O)C(=O)CN(C(=O)CN(C(=O)CN(C(=O)CN(C(=O)CN(C(=O)CN1CCNCC1)[C@@H](C)c1ccccc1)[C@@H](C)c1ccccc1)[C@@H](C)c1ccccc1)[C@@H](C)c1ccccc1)[C@@H](C)c1ccccc1)”, the “crude HPLC purity” value rises from 82% to 85%.

First: {Acetyl(2-(piperazin-1-yl))}-[X1][N(1S-cyclohexylethyl)Gly][N(1S-cyclohexylethyl)Gly][N(1S-cyclohexylethyl)Gly][N(1S-cyclohexylethyl)Gly][N(1S-cyclohexylethyl)Gly]-NH2 (SMILES C[C@@H](C1CCCCC1)N(CC(N)=O)C(=O)CN(C(=O)CN(C(=O)CN(C(=O)CN(C(=O)CN1CCN(C(=O)CN2CCNCC2)CC1)[C@@H](C)C1CCCCC1)[C@@H](C)C1CCCCC1)[C@@H](C)C1CCCCC1)[C@@H](C)C1CCCCC1)
Second: {Acetyl(2-(piperazin-1-yl))}-[X1][Nspe][Nspe][Nspe][Nspe][Nspe][Nspe]-NH2 (SMILES C[C@@H](c1ccccc1)N(CC(N)=O)C(=O)CN(C(=O)CN(C(=O)CN(C(=O)CN(C(=O)CN(C(=O)CN1CCN(C(=O)CN2CCNCC2)CC1)[C@@H](C)c1ccccc1)[C@@H](C)c1ccccc1)[C@@H](C)c1ccccc1)[C@@H](C)c1ccccc1)[C@@H](C)c1ccccc1)
The “crude HPLC purity” value of the first is lower: 72% for the first, 82% for the second.

In the case of “{Acetyl(2-(piperazin-1-yl))}-[X1][X1][N(1S-cyclohexylethyl)Gly][N(1S-cyclohexylethyl)Gly][N(1S-cyclohexylethyl)Gly][N(1S-cyclohexylethyl)Gly][N(1S-cyclohexylethyl)Gly]-NH2 (SMILES C[C@@H](C1CCCCC1)N(CC(N)=O)C(=O)CN(C(=O)CN(C(=O)CN(C(=O)CN(C(=O)CN1CCN(C(=O)CN2CCN(C(=O)CN3CCNCC3)CC2)CC1)[C@@H](C)C1CCCCC1)[C@@H](C)C1CCCCC1)[C@@H](C)C1CCCCC1)[C@@H](C)C1CCCCC1)”, the “crude HPLC purity” value was 67%.

Source: patent US20200055897A1 (Technion Research & Development Foundation Limited, priority 2017, published 2020)
